According to patent publication US5448062A (priority 1993, dated 1995):

How the values were obtained:
[1] = S/N = 3; aqueous mixtures; DIMP ion trap; membrane 30° C.
[2] = Pneumatically-assisted coaxial membrane/quartz jet separator / ion trap mass spectrometer detection
[3] = Membrane/metal jet separator / single quadrupole mass spectrometer detection
[4] = S/N = 3, single ion monitoring, sample solution 45° C., tip spacing 0.30 mm

SMILES | Detection limit [1] | Detection limit [3, 4] | further results
CBr [bromomethane] | 1 ppb |  | 
Clc1ccccc1 [chlorobenzene] |  | 0.100 ppb | detection limits ([2]; aqueous solution): ≤ 30 parts per trillion; limits of quantitation ([2]; aqueous solution): ≤ 100 ppt
CCCl [chloroethane] | 2 ppb |  | 
ClC(Cl)Cl [trichloromethane] |  | 0.300 ppb | ratio of the signal intensities due to chloroform and helium (maximum) ([3]; 250 ppm chloroform, helium 25 mL/min, spacing of 0.5 and 0.4 mm): 7.0; ratio of the signal intensities due to chloroform and helium ([3]; 250 ppm chloroform, helium 25 mL/min, tip spacings larger than 3 mm): 0.14
CCC(C)=O [2-butanone] |  |  | detection limits ([2]; polar compounds, ambient temperature): less than 100 ppb
ClC(Cl)(Cl)Cl [tetrachloromethane] | 2 ppb | 0.200 ppb | 
Cl/C=C/Cl [trans-1,2 dichloroethene] |  | 0.030 ppb | detection limits ([2]; aqueous solution): ≤ 30 parts per trillion; limits of quantitation ([2]; aqueous solution): ≤ 100 ppt
C=COCCCl [2-chloroethylvinylether] | 2 ppb |  | 
ClCC(Cl)Cl [1,1,2-trichloroethane] | 2 ppb |  | 
c1ccccc1 [benzene] |  |  | detection limits ([2]; aqueous solution): ≤ 30 parts per trillion; limits of quantitation ([2]; aqueous solution): ≤ 100 ppt
CC(C)=O [acetone] |  | 20 ppb | 
CC(Cl)Cl [1,1-dichloroethane] | 0.5 ppb |  | 
Cl/C=C/Cl [trans-dichloroethane] |  |  | Detection limit ([3]; single ion monitoring, sample solution 45° C.): 30 ppt
FC(Cl)(Cl)Cl [trichlorofluoromethane] | 2 ppb |  | 
CC(=O)O [acetic acid] |  |  | Detection limit ([3]; less volatile, more polar compounds, 45° C.): 5 ppm

Read-outs that look alike come from different tables or passages of the source.
